Consider 18 substances from patent US12144864B2 (Regeneron Pharmaceuticals, Inc., priority 2018, dated 2024).

The series in a line: peptide synthesis.
Where [1] appears, read: conjugation step, HPLC-MS, Agilent 1200 HPLC/6100 SQ, C18 columns, DAD (214 nm and 254 nm), ELSD.

With “(4S)-4-({2-[(1R,3R)-1-(Acetyloxy)-4-methyl-3-[(2S,3S)-3-methyl-2-{[(2R)-1-methylpiperidin-2-yl]formamido}-N-(pent-4-yn-1-yloxy)pentanamido]pentyl]-1,3-thiazol-4-yl}formamido)-5-[4-(2-{2-[2-(cyclooct-2-yn-1-yloxy)acetamido]acetamido}acetamido)phenyl]-2,2-dimethylpentanoic acid”, the conjugation yield (conjugation step) is 47%. Besides, the “final HPLC purity” value under setting [1] is more than 95%.
On to “(4S)-4-({2-[(1R,3R)-1-(Acetyloxy)-4-methyl-3-[(2S,3S)-3-methyl-2-{[(2R)-1-methylpiperidin-2-yl]formamido}-N-(pent-4-yn-1-yloxy)pentanamido]pentyl]-1,3-thiazol-4-yl}formamido)-5-{4-[2-(2-aminoacetamido)acetamido]phenyl}”, for which the step yield (coupling step) was 48%.
In the case of “(4S)-4-({2-[(1R,3R)-1-(Acetyloxy)-4-methyl-3-[(2S,3S)-3-methyl-2-{[(2R)-1-methylpiperidin-2-yl]formamido}-N-(pent-4-yn-1-yloxy)pentanamido]pentyl]-1,3-thiazol-4-yl}formamido)-5-{4-[(2S)-2-[(2R)-2-[(2S)-2-[2-(cyclooct-2-yn-1-yloxy)acetamido]propanamido]propanamido]propanamido]phenyl}-2,2-dimethylpentanoic acid”, under setting [1], the “final HPLC purity” value worked out at 95%.
For “(4S)-4-({2-[(1R,3R)-1-(Acetyloxy)-4-methyl-3-[(2S,3S)-3-methyl-2-{[(2R)-1-methylpiperidin-2-yl]formamido}-N-(pent-4-yn-1-yloxy)pentanamido]pentyl]-1,3-thiazol-4-yl}formamido)-5-{4-[(2S)-2-amino-4-carboxybutanamido]phenyl}”, the step yield (coupling step) came out at 63%.
The substance “(4S)-4-({2-[(1R,3R)-1-(Acetyloxy)-4-methyl-3-[(2S,3S)-3-methyl-2-{[(2R)-1-methylpiperidin-2-yl]formamido}-N-(pent-4-yn-1-yloxy)pentanamido]pentyl]-1,3-thiazol-4-yl}formamido)-5-{4-[(2S)-2-aminopropanamido]phenyl}” had a step yield (coupling step) of 55%.
Where the note is “conjugation step”, “(4S)-4-({2-[(1R,3R)-1-(Acetyloxy)-4-methyl-3-[(2S,3S)-3-methyl-2-{[(2R)-1-methylpiperidin-2-yl]formamido}-N-(pent-4-yn-1-yloxy)pentanamido]pentyl]-1,3-thiazol-4-yl}formamido)-5-{4-[(2S)-4-carboxy-2-[2-(2-{2-[2-(cyclooct-2-yn-1-yloxy)acetamido]acetamido}acetamido)acetamido]butanamido]phenyl}-2,2-dimethylpentanoic acid” yielded a conjugation yield of 58%. Further, the “final HPLC purity” value under setting [1] is on record as 95%.
As for “(4S)-4-({2-[(1R,3R)-1-(Acetyloxy)-4-methyl-3-[(2S,3S)-3-methyl-2-{[(2R)-1-methylpiperidin-2-yl]formamido}-N-(pent-4-yn-1-yloxy)pentanamido]pentyl]-1,3-thiazol-4-yl}formamido)-5-{4-[({[3-({2-[2-(cyclooct-2-yn-1-yloxy)acetamido]ethyl}carbamoyl)-4-{[(2S,3R,4S,5S,6R)-3,4,5-trihydroxy-6-(hydroxymethyl)oxan-2-yl]oxy}phenyl]methoxy}carbonyl)amino]phenyl}-2,2-dimethylpentanoic acid”, the “final HPLC purity” value under setting [1] is more than 95%. Besides, the step yield (coupling step) is 29%.
Regarding “(4S)-4-({2-[(1R,3R)-1-(Acetyloxy)-4-methyl-3-[(2S,3S)-3-methyl-2-{[(2R)-1-methylpiperidin-2-yl]formamido}-N-(pentyloxy)pentanamido]pentyl]-1,3-thiazol-4-yl}formamido)-5-(4-aminophenyl)-2,2-dimethylpentanoic acid”, the step yield (coupling step) worked out at 30%. Besides, the “final HPLC purity” value by setting is: (coupling step, Method B) 95%; (whole synthesis, HPLC-MS, Agilent 1200 HPLC/6100 SQ, C18 columns, DAD (214 nm and 254 nm), ELSD) more than 99%.
As to “(4S)-4-({2-[(1R,3R)-1-(Acetyloxy)-4-methyl-3-[(2S,3S)-3-methyl-2-{[(2R)-1-methylpiperidin-2-yl]formamido}-N-(pentyloxy)pentanamido]pentyl]-1,3-thiazol-4-yl}formamido)-5-(4-{2-[2-(2-{2-[2-(cyclooct-2-yn-1-yloxy)acetamido]acetamido}acetamido)acetamido]acetamido}phenyl)-2,2-dimethylpentanoic acid”, for the setting “conjugation step”, the conjugation yield worked out at 69%. Further, under setting [1], the “final HPLC purity” value is more than 99%.
“(4S)-4-({2-[(1R,3R)-1-(Acetyloxy)-4-methyl-3-[(2S,3S)-3-methyl-2-{[(2R)-1-methylpiperidin-2-yl]formamido}-N-(pentyloxy)pentanamido]pentyl]-1,3-thiazol-4-yl}formamido)-5-[4-(2-aminoacetamido)phenyl]-2,2-dimethylpentanoic acid” yielded a step yield (coupling step) of 69%.
Consider “(4S)-4-({2-[(1R,3R)-1-(Acetyloxy)-4-methyl-3-[(2S,3S)-3-methyl-2-{[(2R)-1-methylpiperidin-2-yl]formamido}-N-(pentyloxy)pentanamido]pentyl]-1,3-thiazol-4-yl}formamido)-5-[4-(2-{2-[2-(2-aminoacetamido)acetamido]acetamido}acetamido)phenyl]”, for which the step yield (coupling step) is on record as 47%.
“(4S)-4-({2-[(1R,3R)-1-(Acetyloxy)-4-methyl-3-[(2S,3S)-3-methyl-2-{[(2R)-1-methylpiperidin-2-yl]formamido}-N-(pentyloxy)pentanamido]pentyl]-1,3-thiazol-4-yl}formamido)-5-{4-[(2S)-2-[(2S)-2-[1-(4-{2-azatricyclo[10.4.0.04,^9]hexadeca-1(12),4(9),5,7,13,15-hexaen-10-yn-2-yl}-4-oxobutanamido)-3,6,9,12-tetraoxapentadecan-15-amido]-3-methylbutanamido]-5-(carbamoylamino)pentanamido]phenyl}-2,2-dimethylpentanoic acid” had a conjugation yield (conjugation step) of 67%. For the same substance, the “final HPLC purity” value under setting [1] is on record as 100%.
As for “(4S)-4-({2-[(1R,3R)-1-(acetyloxy)-3-[(2S,3S)—N-(hex-5-yn-1-yl)-3-methyl-2-{[(2R)-1-methylpiperidin-2-yl]formamido}pentanamido]-4-methylpentyl]-1,3-thiazol-4-yl}formamido)-5-(4-{[({4-[(2S)-2-[(2S)-2-[1-(4-{2-azatricyclo[10.4.0.04,9]hexadeca-1(12),4(9),5,7,13,15-hexaen-10-yn-2-yl}-4-oxobutanamido)-3,6,9,12-tetraoxapentadecan-15-amido]-3-methylbutanamido]-2-[2-(carbamoylamino)ethoxy]acetamido]phenyl}methoxy)carbonyl]amino}phenyl)-2,2-dimethylpentanoic acid”, the “final HPLC purity” value under setting [1] is given as 90%.
On to “(4S)-4-({2-[(1R,3R)-1-(acetyloxy)-3-[(2S,3S)—N-(hex-5-yn-1-yl)-3-methyl-2-{[(2R)-1-methylpiperidin-2-yl]formamido}pentanamido]-4-methylpentyl]-1,3-thiazol-4-yl}formamido)-5-(4-{[({4-[(2S)-2-[(2S)-2-[1-(4-{2-azatricyclo[10.4.0.04,9]hexadeca-1(12),4(9),5,7,13,15-hexaen-10-yn-2-yl}-4-oxobutanamido)-3,6,9,12-tetraoxapentadecan-15-amido]-3-methylbutanamido]-5-(carbamoylamino)pentanamido]phenyl}methoxy)carbonyl]amino}phenyl)-2,2-dimethylpentanoic acid”, for which the conjugation yield (conjugation step) was found to be 35%. Besides, the “final HPLC purity” value under setting [1] is reported as 95%.
As for “(4S)-4-({2-[(1R,3R)-1-(acetyloxy)-3-[(2S,3S)—N-(hex-5-yn-1-yl)-3-methyl-2-{[(2R)-1-methylpiperidin-2-yl]formamido}pentanamido]-4-methylpentyl]-1,3-thiazol-4-yl}formamido)-5-{4-[(2S)-2-[(2S)-2-[1-(4-{2-azatricyclo[10.4.0.04,^9]hexadeca-1(12),4(9),5,7,13,15-hexaen-10-yn-2-yl}-4-oxobutanamido)-3,6,9,12-tetraoxapentadecan-15-amido]-3-methylbutanamido]propanamido]phenyl}-2,2-dimethylpentanoic acid”, under “conjugation step”, the conjugation yield worked out at 39%. In addition, the “final HPLC purity” value under setting [1] is reported as 100%.
For “(4S)-4-({2-[(1R,3R)-1-(acetyloxy)-4-methyl-3-[(2S,3S)-3-methyl-2-{[(2R)-1-methylpiperidin-2-yl]formamido}-N-(pentyloxy)pentanamido]pentyl]-1,3-thiazol-4-yl}formamido)-5-(4-{2-[(2S)-2-{2-[2-(4-{2-azatricyclo[10.4.0.04,^9]hexadeca-1(12),4(9),5,7,13,15-hexaen-10-yn-2-yl}-4-oxobutanamido)acetamido]acetamido}-3-phenylpropanamido]acetamido}phenyl)-2,2-dimethylpentanoic acid”, the conjugation yield (conjugation step) is given as 80%. The “final HPLC purity” value under setting [1] was more than 99%.
Where the note is “late stage modification step”, “(4S)-5-(4-Acetamidophenyl)-4-({2-[(1R,3R)-1-[(ethylcarbamoyl)oxy]-4-methyl-3-[(2S,3S)-3-methyl-2-{[(2R)-1-methylpiperidin-2-yl]formamido}-N-(pent-4-yn-1-yloxy)pentanamido]pentyl]-1,3-thiazol-4-yl}formamido)-2,2-dimethylpentanoic acid” displayed a step yield of 28%. Where the note is “late stage modification step, method B”, the “final HPLC purity” value is listed as 100%.
For the setting “coupling step, in 3 steps”, “(4S)-5-(4-Aminophenyl)-4-({2-[(1R,3R)-1-[(ethylcarbamoyl)oxy]-4-methyl-3-[(2S,3S)-3-methyl-2-{[(2R)-1-methylpiperidin-2-yl]formamido}-N-(pent-4-yn-1-yloxy)pentanamido]pentyl]-1,3-thiazol-4-yl}formamido)-2,2-dimethylpentanoic acid” displayed a step yield of 27%. Also, the “final HPLC purity” value (whole synthesis, method B) is listed as more than 99%.
